Key:
[1] = Bottom gate-bottom contact p-type organic thin film transistor, transfer characteristics; conditions: for carrier mobility for holes / current ON/OFF ratio: before annealing; for carrier mobility for holes after annealing / current ON/OFF ratio after annealing: annealed at 130° C. for 10 min
[2] = Top gate-bottom contact p-type organic thin film transistor, transfer characteristics
[3] = drop cast from toluene solution
[4] = 0.20% by weight solution in anisole (60° C.)
[5] = drop cast from toluene solution, before annealing

Compound: CCCCCCCCc1ccc2c(c1)sc1c3ccc(CCCCCCCC)cc3sc21 [2,7-dioctyl[1]benzothieno[3,2-b][1]benzothiophene, reference compound]
- carrier mobility for holes [1, 3]: 1.02 cm^2/V. sec
- current ON/OFF ratio [1, 3]: 3.0 × 10^5

Compound: 2,7-di(2-(4-heptylphenyl)ethyl)dithienobiphenylene [Compound 6]
- carrier mobility for holes [1, 3]: 1.19 cm^2/V. sec
- current ON/OFF ratio [1, 3]: 1.1 x 10^6
- carrier mobility for holes after annealing ([1]; toluene solution): 1.15 cm^2/V•sec
- current ON/OFF ratio after annealing ([1]; toluene solution): 1.0 x 10^6

Compound: 2,7-di(2-(4-propylphenyl)ethyl)dithienobiphenylene [Compound 4]
- carrier mobility for holes [1, 4]: 2.48 cm^2/V. sec
- current ON/OFF ratio [1, 4]: 1.6 x 10^6
- carrier mobility for holes after annealing ([1]; anisole solution): 2.40 cm^2/V•sec
- current ON/OFF ratio after annealing ([1]; anisole solution): 1.4 x 10^6
- carrier mobility for holes [1, 3]: 1.86 cm^2/V. sec
- current ON/OFF ratio [1, 3]: 1.1 x 10^6
- carrier mobility for holes after annealing ([1]; toluene solution): 1.70 cm^2/V•sec
- current ON/OFF ratio after annealing ([1]; toluene solution): 1.0 x 10^6

Compound: c1ccc(CCc2cc3ccc4c(c3s2)-c2ccc3cc(CCc5ccccc5)sc3c2-4)cc1 [Compound 1, 2,7-di(2-phenylethyl)dithienobiphenylene]
- carrier mobility for holes after annealing ([2]; annealed at 130° C. for 10 min): 1.40 cm^2/V•sec
- current ON/OFF ratio after annealing ([2]; annealed at 130° C. for 10 min): 1.2 x 10^6
- carrier mobility for holes [2, 5]: 1.45 cm^2/V. sec
- current ON/OFF ratio [2, 5]: 1.6 x 10^6
- carrier mobility for holes [1, 3]: 2.29 cm^2/V. sec
- current ON/OFF ratio [1, 3]: 1.5 x 10^6
- carrier mobility for holes after annealing ([1]; toluene solution): 2.25 cm^2/V•sec
- current ON/OFF ratio after annealing ([1]; toluene solution): 1.0 x 10^6

Compound: CCCCc1ccc(CCc2cc3ccc4cc5c(ccc6ccsc65)cc4c3s2)cc1 [Compound 17, 2-(2-(4-n-butylphenyl)ethyl)anthra[1,2-b:5,6-b′]dithiophene]
- carrier mobility for holes [1, 3]: 1.13 cm^2/V. sec
- current ON/OFF ratio [1, 3]: 8.1 × 10^7
- carrier mobility for holes after annealing ([1]; toluene solution): 1.10 cm^2/V•sec
- current ON/OFF ratio after annealing ([1]; toluene solution): 8.0 × 10^7
